We go through 13 molecules from the supplement of paper PMC10727501.

Some of the results follow. Single values are uncertain here, since repeats match poorly.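 Free-swimming zebrafish larvae were assessed for O-bend response probability to dark flashes (naive: first five; training: remaining flashes across four 60-flash blocks; test: later 60-flash block) and for OMR turning toward alternating leftward/rightward LED motion. Six treated larvae were compared against sixty 0.1% DMSO controls; hits required |SSMD|≥2.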

The test system of the experiment is Danio rerio larvae (5 dpf, TLF). The experiment can be described thus: Prob-Naive (SSMD vs DMSO vehicle); higher = higher than vehicle (e.g. higher dark-flash O-bend response probability, or better optomotor performance). To be noted: 10 µM; pre-incubation: 30-90 min.
For `COCC[n+]1c2c(n(Cc3cnccn3)c1C)C(=O)c1ccccc1C2=O` [YM155 (Sepantronium Bromide)], the Prob-Naive stood at 0.515. For `CN(C)C(=O)[C@H](O)[C@H](Cc1ccccc1)NC(=O)c1cc2cc(Cl)ccc2[nH]1`, the Prob-Naive is -0.144. For the molecule `CS(=O)c1ccc(-c2nc(-c3ccc(F)cc3)c(-c3ccncc3)[nH]2)cc1` (stereo not drawn), the Prob-Naive came out at 0.17. To `CC[N+](CC)(CC)CCOc1cccc(OCC[N+](CC)(CC)CC)c1OCC[N+](CC)(CC)CC.[I-].[I-].[I-]` [Gallamine Triethiodide] belongs 0.028; to `CN1CCc2nc(C(=O)N[C@H]3C[C@H](C(=O)N(C)C)CC[C@@H]3NC(=O)C(=O)Nc3ccc(Cl)cn3)sc2C1` [Edoxaban], 0.584; to `Cc1ncc(C[n+]2csc(CCO)c2C)c(N)n1.Cl.[Cl-]` [Thiamine HCl (Vitamin B1)], -0.0745. Consider `NC1(Cc2ccc(Cl)cc2)CCN(c2ncnc3[nH]ccc23)CC1`, for which the Prob-Naive came to 0.102.

`Cc1ccc(Nc2nccc(N(C)c3ccc4c(C)n(C)nc4c3)n2)cc1S(N)(=O)=O` [Pazopanib] returned a Prob-Naive of 0.0457. `CC(C)OC(=O)OCOP(=O)(CO[C@H](C)Cn1cnc2c(N)ncnc21)OCOC(=O)OC(C)C.O=C(O)/C=C\C(=O)O` [Tenofovir Disoproxil Fumarate] displayed a Prob-Naive of 0.255.

On to `Cl.O=S(=O)(c1cccc2cnccc12)N1CCCNCC1` [Fasudil (HA-1077) HCl], for which the Prob-Naive was -0.043. As for `CC(C)c1c(C(=O)Nc2ccccc2)c(-c2ccccc2)c(-c2ccc(F)cc2)n1CC[C@@H](O)C[C@@H](O)CC(=O)[O-].CC(C)c1c(C(=O)Nc2ccccc2)c(-c2ccccc2)c(-c2ccc(F)cc2)n1CC[C@@H](O)C[C@@H](O)CC(=O)[O-].[Ca+2]` [Atorvastatin Calcium], the figure is 0.507; as for `Cc1cc(=O)oc2cc(O)ccc12` [4-Methylumbelliferone (4-MU)], 0.285.

As to `C#CCN[C@H]1CCc2ccccc21.CS(=O)(=O)O` [Rasagiline Mesylate], the Prob-Naive was -0.639.
